Measurements published in patent publication US10563263B2, “Genetic polymorphisms associated with statin response and cardiovascular diseases, methods of detection and uses thereof” (CELERA CORPORATION, priority 2010, dated 2020).
Further values from the same series stand in other lists.

Tested on: CHD
Assay: Meta-analysis of CARE and WOSCOPS combined, synergy index, CHD endpoint
Format: in vivo, human
Conditions: for OR(R): random effect; for OR: fixed effect
Text: Tables 4-5 provide meta-analyses of CARE and WOSCOPS combined (2nd section of each table) for two endpoints (CHD and CVD) and three genetic models (dominant, recessive, and additive), as well as logistic regression analyses of CARE (3rd section of each table) and WOSCOPS (4th section of each table) individually.
Tables 12 and 17 provide results of meta-analysis of the CARE and WOSCOPS sample sets combined by direct genotyping and by imputing genotypes.
“P” indicates the p-value, and “P(R)” (or “P.R.”) indicates the p-value random effect. Both of these are p-values corresponding to a statistical test of whether the combined synergy index is equal to one but use different assumptions to derive the p-value. “P” is calculated using a fixed effects model, and “P(R)” is calculated using a random effects model.
“OR” indicates the odds ratio (synergy index) calculated from a fixed effects model, and “OR(R)” (or “OR.R.”) indicates the odds ratio (synergy index) calculated from a random effects model.

[1] = rs1424643 allele G DOMINANT Imputed
[2] = rs1424648 allele T DOMINANT Imputed
[3] = rs1429321 allele A DOMINANT Imputed
[4] = rs1429326 allele T ADDITIVE Imputed
[5] = rs1429326 allele T DOMINANT Imputed
[6] = rs1444741 allele A DOMINANT Imputed
[7] = rs1449916 allele C DOMINANT Imputed
[8] = rs1459523 allele A ADDITIVE Imputed
[9] = rs1459523 allele A GENOTYPIC Imputed
[10] = rs1466352 allele T GENOTYPIC Imputed
[11] = rs1466353 allele G GENOTYPIC Imputed
[12] = rs1476714 allele A DOMINANT Imputed
[13] = rs1486723 allele C RECESSIVE Imputed
[14] = rs1495375 allele A ADDITIVE Imputed
[15] = rs1495375 allele A DOMINANT Imputed
[16] = rs1495381 allele T GENOTYPIC Imputed
[17] = rs1495381 allele T RECESSIVE Imputed
[18] = rs1498061 allele C ADDITIVE Imputed
[19] = rs1498992 allele G DOMINANT Imputed
[20] = rs1499001 allele T DOMINANT Imputed
[21] = rs1512988 allele A ADDITIVE Imputed
[22] = rs1512988 allele A DOMINANT Imputed
[23] = rs1512989 allele T ADDITIVE Imputed
[24] = rs1512989 allele T DOMINANT Imputed
[25] = rs1512991 allele T ADDITIVE Imputed
[26] = rs1512991 allele T DOMINANT Imputed
[27] = rs1512991 allele T GENOTYPIC Imputed
[28] = rs1524303 allele T GENOTYPIC Imputed
[29] = rs1524306 allele C ADDITIVE Imputed
[30] = rs1524306 allele C GENOTYPIC Imputed
[31] = rs1524310 allele G ADDITIVE Imputed
[32] = rs1524310 allele G GENOTYPIC Imputed
[33] = rs1524321 allele C GENOTYPIC Imputed
[34] = rs1527059 allele A DOMINANT Imputed
[35] = rs1533994 allele T GENOTYPIC Imputed
[36] = rs1535866 allele G DOMINANT Imputed
[37] = rs1563773 allele T GENOTYPIC Imputed
[38] = rs1563774 allele T GENOTYPIC Imputed
[39] = rs1567740 allele T ADDITIVE Imputed
[40] = rs1567740 allele T DOMINANT Imputed
[41] = rs1572573 allele A DOMINANT Imputed
[42] = rs1577497 allele C RECESSIVE Imputed
[43] = rs1581514 allele T ADDITIVE Imputed
[44] = rs1581514 allele T GENOTYPIC Imputed
[45] = rs1582321 allele T DOMINANT Imputed
[46] = rs1582322 allele A DOMINANT Imputed

CC[C@H](C)C(=O)O[C@H]1C[C@H](O)C=C2C=C[C@H](C)[C@H](CC[C@@H](O)C[C@@H](O)CC(=O)O)[C@H]21 [Pravastatin, pravastatin]
OR(R) (rs1424643 allele G ADDITIVE Imputed): 1.4199 | OR [1]: 1.5226 | OR(R) [1]: 1.5226 | OR [2]: 1.4456 | OR(R) [2]: 1.4456 | OR [3]: 1.4871 | OR(R) [3]: 1.4871 | OR [4]: 1.3974 | OR(R) [4]: 1.3974 | OR [5]: 1.5125 | OR(R) [5]: 1.5125 | OR [6]: 0.605 | OR(R) [6]: 0.605 | OR [7]: 0.5247 | OR(R) [7]: 0.5244 | OR [8]: 1.3969 | OR(R) [8]: 1.3969 | OR [9]: 2.0995 | OR(R) [9]: 2.0995 | OR [10]: 2.0358 | OR(R) [10]: 2.0358 | OR [11]: 2.0365 | OR(R) [11]: 2.0365 | OR [12]: 0.6713 | OR(R) [12]: 0.6713 | OR [13]: 0.4982 | OR(R) [13]: 0.4982 | OR [14]: 0.7269 | OR(R) [14]: 0.7269 | OR [15]: 0.6177 | OR(R) [15]: 0.6177 | OR [16]: 1.6918 | OR(R) [16]: 1.6918 | OR [17]: 1.7303 | OR(R) [17]: 1.7303 | OR [18]: 0.5363 | OR(R) [18]: 0.5363 | OR [19]: 0.6388 | OR(R) [19]: 0.6388 | OR [20]: 0.6155 | OR(R) [20]: 0.6155 | OR [21]: 0.7101 | OR(R) [21]: 0.7101 | OR [22]: 0.6074 | OR(R) [22]: 0.6074 | OR [23]: 0.7101 | OR(R) [23]: 0.7101 | OR [24]: 0.6074 | OR(R) [24]: 0.6074 | OR [25]: 0.7396 | OR(R) [25]: 0.7396 | OR [26]: 0.6115 | OR(R) [26]: 0.6115 | OR [27]: 0.5777 | OR(R) [27]: 0.5777 | OR [28]: 2.0455 | OR(R) [28]: 2.0455 | OR [29]: 1.3995 | OR(R) [29]: 1.3995 | OR [30]: 2.1056 | OR(R) [30]: 2.1056 | OR [31]: 1.404 | OR(R) [31]: 1.404 | OR [32]: 2.1176 | OR(R) [32]: 2.1176 | OR [33]: 2.0756 | OR(R) [33]: 2.0756 | OR [34]: 0.6321 | OR(R) [34]: 0.6321 | OR [35]: 2.0565 | OR(R) [35]: 2.0565 | OR [36]: 1.5272 | OR(R) [36]: 1.5369 | Meta-analysis OR (rs1536506, A1 (non-ref) A, A2 (ref) G): 1.49 | Meta-analysis OR (rs1538185 allele A vs G (ref)): 1.60 | Meta-analysis OR (rs1544214 allele A vs G (ref)): 1.38 | OR [37]: 2.0358 | OR(R) [37]: 2.0358 | OR [38]: 2.0374 | OR(R) [38]: 2.0374 | Meta-analysis OR (rs1564078, A1 (non-ref) G, A2 (ref) A): 0.78 | OR [39]: 0.7104 | OR(R) [39]: 0.7104 | OR [40]: 0.6056 | OR(R) [40]: 0.6056 | OR [41]: 1.64 | OR(R) [41]: 1.64 | OR [42]: 0.5263 | OR(R) [42]: 0.5263 | Meta-analysis OR (rs1580713, A1 (non-ref) A, A2 (ref) G): 1.57 | OR [43]: 1.3993 | OR(R) [43]: 1.3993 | OR [44]: 2.1081 | OR(R) [44]: 2.1081 | OR [45]: 0.6096 | OR(R) [45]: 0.6096 | OR [46]: 0.6175 | OR(R) [46]: 0.6175
